# Percent effect of library compounds

By UniProt entry, the sequences of proteins in these tests, tags left out. Residues count along the entry.
UniProt P9WNZ1, whole entry: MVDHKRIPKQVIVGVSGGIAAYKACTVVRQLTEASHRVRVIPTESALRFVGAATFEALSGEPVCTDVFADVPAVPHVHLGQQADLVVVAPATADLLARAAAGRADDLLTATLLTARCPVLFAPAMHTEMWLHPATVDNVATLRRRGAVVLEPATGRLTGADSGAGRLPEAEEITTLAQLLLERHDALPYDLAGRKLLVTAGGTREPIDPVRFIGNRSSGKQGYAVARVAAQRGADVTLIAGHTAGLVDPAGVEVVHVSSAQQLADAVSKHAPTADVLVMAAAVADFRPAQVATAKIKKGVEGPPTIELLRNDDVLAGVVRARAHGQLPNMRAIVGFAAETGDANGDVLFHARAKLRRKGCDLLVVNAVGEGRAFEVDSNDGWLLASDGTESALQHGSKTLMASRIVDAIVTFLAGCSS
UniProt I6X8D2, whole entry: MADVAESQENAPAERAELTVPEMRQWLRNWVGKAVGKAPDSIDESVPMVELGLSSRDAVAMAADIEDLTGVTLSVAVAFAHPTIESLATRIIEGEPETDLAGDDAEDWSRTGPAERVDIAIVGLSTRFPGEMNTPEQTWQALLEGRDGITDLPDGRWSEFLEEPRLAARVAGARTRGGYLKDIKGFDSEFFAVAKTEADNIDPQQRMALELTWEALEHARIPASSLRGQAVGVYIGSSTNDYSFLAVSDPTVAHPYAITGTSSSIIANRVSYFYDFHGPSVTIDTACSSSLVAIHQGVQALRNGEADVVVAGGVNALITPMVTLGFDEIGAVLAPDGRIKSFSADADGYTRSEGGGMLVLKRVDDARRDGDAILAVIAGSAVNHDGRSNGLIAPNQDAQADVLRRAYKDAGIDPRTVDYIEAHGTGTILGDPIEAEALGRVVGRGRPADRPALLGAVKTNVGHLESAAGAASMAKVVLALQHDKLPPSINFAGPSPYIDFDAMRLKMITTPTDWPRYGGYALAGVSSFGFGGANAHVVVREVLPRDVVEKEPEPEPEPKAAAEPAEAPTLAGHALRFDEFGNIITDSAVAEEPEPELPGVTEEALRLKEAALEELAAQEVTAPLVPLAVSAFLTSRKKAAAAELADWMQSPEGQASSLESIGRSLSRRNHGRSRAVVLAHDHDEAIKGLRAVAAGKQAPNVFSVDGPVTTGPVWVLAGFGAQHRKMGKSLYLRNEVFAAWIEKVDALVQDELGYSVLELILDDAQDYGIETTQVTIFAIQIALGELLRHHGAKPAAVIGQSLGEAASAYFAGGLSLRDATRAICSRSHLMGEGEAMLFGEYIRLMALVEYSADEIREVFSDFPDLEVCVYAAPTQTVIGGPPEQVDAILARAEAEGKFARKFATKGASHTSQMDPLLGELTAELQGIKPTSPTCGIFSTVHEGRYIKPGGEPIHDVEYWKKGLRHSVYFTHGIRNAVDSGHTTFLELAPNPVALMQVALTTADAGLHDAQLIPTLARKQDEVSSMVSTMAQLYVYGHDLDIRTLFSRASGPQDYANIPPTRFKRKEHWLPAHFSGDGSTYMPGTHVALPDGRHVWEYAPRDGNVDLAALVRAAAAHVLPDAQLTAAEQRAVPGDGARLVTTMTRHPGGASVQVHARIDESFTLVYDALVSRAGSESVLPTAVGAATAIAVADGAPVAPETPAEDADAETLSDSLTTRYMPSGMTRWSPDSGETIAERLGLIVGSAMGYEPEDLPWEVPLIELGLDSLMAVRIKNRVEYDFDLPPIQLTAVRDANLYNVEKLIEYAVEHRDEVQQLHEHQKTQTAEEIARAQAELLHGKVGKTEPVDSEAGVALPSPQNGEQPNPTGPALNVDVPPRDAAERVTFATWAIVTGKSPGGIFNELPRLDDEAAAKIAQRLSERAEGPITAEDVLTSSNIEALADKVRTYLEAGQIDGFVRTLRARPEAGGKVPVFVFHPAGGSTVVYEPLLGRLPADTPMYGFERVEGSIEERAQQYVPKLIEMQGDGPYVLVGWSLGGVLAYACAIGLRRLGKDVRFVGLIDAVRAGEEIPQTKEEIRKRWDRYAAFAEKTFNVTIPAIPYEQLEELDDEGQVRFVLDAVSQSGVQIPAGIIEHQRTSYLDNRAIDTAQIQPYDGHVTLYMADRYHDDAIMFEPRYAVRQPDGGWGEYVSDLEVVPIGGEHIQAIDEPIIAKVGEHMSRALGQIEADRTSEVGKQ
UniProt P9WPC5, whole entry: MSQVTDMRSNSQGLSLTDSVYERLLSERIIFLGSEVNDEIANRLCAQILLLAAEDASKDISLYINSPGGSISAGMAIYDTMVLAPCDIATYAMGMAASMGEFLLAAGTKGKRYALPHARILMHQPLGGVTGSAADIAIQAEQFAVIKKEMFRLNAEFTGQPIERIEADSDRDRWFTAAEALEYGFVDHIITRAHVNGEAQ
UniProt P9WPC3, whole entry partner: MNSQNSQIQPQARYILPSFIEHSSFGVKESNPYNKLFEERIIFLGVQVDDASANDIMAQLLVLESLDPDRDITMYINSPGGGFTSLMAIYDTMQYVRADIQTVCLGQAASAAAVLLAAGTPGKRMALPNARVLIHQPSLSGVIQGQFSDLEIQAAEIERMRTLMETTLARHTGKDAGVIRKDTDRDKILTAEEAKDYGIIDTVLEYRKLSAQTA
UniProt Q4DA54, 1-478: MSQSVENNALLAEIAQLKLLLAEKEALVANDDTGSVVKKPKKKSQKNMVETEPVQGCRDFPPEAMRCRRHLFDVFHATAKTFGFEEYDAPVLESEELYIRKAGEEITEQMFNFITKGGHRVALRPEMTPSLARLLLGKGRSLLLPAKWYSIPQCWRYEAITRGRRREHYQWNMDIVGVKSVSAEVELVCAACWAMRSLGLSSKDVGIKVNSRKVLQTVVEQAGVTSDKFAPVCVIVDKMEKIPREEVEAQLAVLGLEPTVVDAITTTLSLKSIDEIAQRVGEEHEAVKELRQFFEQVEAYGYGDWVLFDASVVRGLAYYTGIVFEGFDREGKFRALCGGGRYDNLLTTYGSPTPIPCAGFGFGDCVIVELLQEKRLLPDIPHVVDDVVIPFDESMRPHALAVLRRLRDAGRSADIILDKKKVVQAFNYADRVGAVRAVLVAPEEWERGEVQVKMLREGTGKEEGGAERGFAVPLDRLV

Each number is a percent effect as filed. How 0% and 100% were set is not recorded. Most values in the screen are low, and negative values occur. The compounds are a random part of those screened.

A: 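Enzyme assay of CoaBC with a phosphate dye (Biomol Green) read at 650 nm. Target: Coenzyme A biosynthesis protein CoaBC, Mycobacterium tuberculosis (UniProt P9WNZ1). Tested at 30 µM. Higher reads as stronger inhibition, judged from the few compounds that gave an IC50. Most strong results did not repeat in a second test. Of about 67,000 compounds tested this way, about 40 (0.06%) reached 50% or more in at least one test.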
B: 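Cell assay of Leishmania donovani living inside macrophages; the read-out is not stated. Compounds at 30 µM. Higher reads as stronger inhibition (inferred: compounds with an IC50 in retests scored well above the rest). Size under these conditions: about 69,000 compounds, about 1,000 of them at 50% or above in at least one test.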
C: 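Enzyme assay of the thioesterase domain of polyketide synthase 13; the read-out is not stated. Target: Polyketide synthase Pks13, Mycobacterium tuberculosis (UniProt I6X8D2). Concentration: 30 µM. The record gives no direction; the compounds picked for IC50 retests had high values, so higher reads as stronger inhibition. Of about 67,000 compounds tested this way, about 300 (0.46%) reached 50% or more in at least one test.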
D: 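Protease assay of ClpP1P2, read by the AMC dye that it sets free. Target: ClpP1P2, Mycobacterium tuberculosis (UniProt P9WPC5 and UniProt P9WPC3). Compounds at 50 µM. Direction is inferred from only a few compounds that gave an IC50; most scored high, so higher reads as stronger inhibition. Most other retested compounds had strongly negative values. About 69,000 compounds were tested under these conditions; 0.015% (about 10) showed 50% or more at least once.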
E: 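Enzyme assay of histidyl-tRNA synthetase; the read-out is not stated. Target: Histidine-tRNA ligase, Trypanosoma cruzi CL Brener (UniProt Q4DA54). Concentration: 30 µM. The record gives no direction; compounds that gave an IC50 in retests scored well above the rest, so higher reads as stronger inhibition. Of about 69,000 compounds tested this way, about 31 (0.045%) reached 50% or more in at least one test.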

* COc1cc(/C=C/c2ncc(C(=O)O)s2)cc(OC)c1 | A: -8.557%; B: -13.6%; C: 19.6%; D: 12.25%; E: 9.836%
* N#Cc1cccc(N2CCCC3(C2)CN(c2ncc(F)cn2)CCO3)n1.O=C(O)C(F)(F)F (configuration not stated) | B: 3.278%
* Cc1nccc(-c2cccc(NCC(=O)N3CCNC(=O)C3)c2)n1 | A: -1.695%; B: 16.41%; C: -3.561%; D: -7.041%; E: 6.358%
* Cc1cc(N2CCC(NC(=O)CCC3CCCO3)CC2)nc(C)n1 (configuration not stated) | A: 0.9804%; B: 1.563%; C: -9.609%; D: -16.54%; E: 2.381%
* Cc1cc(=O)n(C)cc1NC(=O)Cc1cccc(Cl)c1 | A: 18.83%; B: -5.155%; C: -10.11%; D: -8.519%; E: 27.32%
* O=C(c1ncccc1O)N1CCc2c(nc(-c3ccncc3)[nH]c2=O)C1 | A: -4.405%; B: -28.7%; C: 12.26%; D: -4.16%; E: 5.941%
* CCn1c(CN2CCOC(Cn3cncn3)C2)nc2cc(F)ccc21 (configuration not stated) | A: -3.64%; B: 5.57%; C: -21.23%; D: -9.66%; E: 4.712%
* O=C(c1cccn1Cc1cccs1)N1CCN2CCCCC2C1 (configuration not stated) | A: 5.496%; B: 2.976%; C: -21.46%; D: -1.172%; E: 6.286%
* CCC(C)(C)NC(=O)Cn1cc(C(N)=O)c(-c2ccccc2)n1 | A: 8.557%; B: -21.24%; C: -1.274%; D: 8.39%; E: 5.464%
* CCS(=O)(=O)N1CCO[C@H]2[C@H](Oc3ncccc3F)CC[C@@H]21 | A: -2.24%; C: -1.179%; D: -2.701%; E: -1%
* Cc1noc(C)c1S(=O)(=O)NC(=O)COc1ccc2c(c1)CCC2 | A: 2.895%; B: 17.85%; C: -14.54%; D: -5.171%; E: 0.2933%
* O=C(NCCNS(=O)(=O)c1cccc(Cl)c1)C1CCCO1 (configuration not stated) | A: 6.013%; B: -26.51%; C: -1.188%; D: 7.842%; E: -3.448%
* NC(=O)CNC1(c2ccc(Cl)cc2)CCCC1 | A: 3.671%; B: 24.04%; C: -2.301%; D: -2.083%; E: 4.969%
* Cc1ccc(NC2CCN(C(=O)CCc3c(C)noc3C)CC2)nn1 | A: 4.825%; B: 23.52%; D: -15.09%; E: 6.977%
* NC(=O)CC1CCCN(c2cncc(SCc3ccccc3)n2)C1 (configuration not stated) | A: 3.883%; B: 21.04%; C: 7.197%; D: -74.38%; E: 8.04%
* O=C(NCc1ccc2c(c1)OCO2)[C@H]1C=CCN1c1ncccn1 | A: -0.2375%; B: 21.72%; C: 8.272%; D: -7.223%; E: 0.7692%
* COc1ccc(C(=O)n2nc(C)c(C)c2C)cc1 | A: -2.927%; B: -24.04%; C: -2.219%; D: -1.089%; E: 0%
* Cc1ccc2c(c1)c(C)cc(=O)n2CCC(=O)O | A: 0.5612%; B: 20.6%; C: -4.157%; D: 19.13%; E: 6.736%
* CCS(=O)(=O)N1CCc2c(cccc2NCc2nc(C)c(C)o2)C1 | A: 0.3659%; B: 8.946%; C: -21.66%; D: -6.035%; E: 0.6024%
* Cc1cc(S(=O)(=O)N2CCCc3ccccc32)sc1C(=O)O | A: -3.719%; B: 9.432%; C: 5.648%; D: 1.2%; E: -6.667%
* [H][C@]12CC[C@]([H])(CN(C(=O)Nc3cccc4ccccc34)C1)N(C)C2=O | B: -9.554%
* Cc1cc(C(=O)Nc2ccc3oc(=O)n(CCN(C)C)c3c2)c(C)o1 | A: -17.77%; B: 3.164%; C: 8.308%; D: 1.961%; E: 15%
* O=C(c1ccc(=O)[nH]c1)N1CCC(Oc2cccc(C(F)(F)F)c2)CC1 | A: -1.351%; B: 17.56%; C: -1.951%; D: 6.971%; E: 9.524%
* Cc1oncc1S(=O)(=O)N1CCCC(C)(Cc2ccc3c(c2)OCO3)C1 (configuration not stated) | A: 5.983%; B: -27.3%; C: 13.2%; D: -17.14%; E: -7.027%

Source: ChEMBL document CHEMBL3988442, “University of Dundee, Small-Polar-MMV Screening Library” (2021).